# In the supplement of paper PMC3334620:
# In all, about 33,000 sequences were measured (“E-score (-0.5 to 0.5)”: median about -0.016, highest 2% from about 0.3 on). The list shows a part of the results.
# Molecular target: T1, Yer184c (UniProt P39961)
# T1 sequence: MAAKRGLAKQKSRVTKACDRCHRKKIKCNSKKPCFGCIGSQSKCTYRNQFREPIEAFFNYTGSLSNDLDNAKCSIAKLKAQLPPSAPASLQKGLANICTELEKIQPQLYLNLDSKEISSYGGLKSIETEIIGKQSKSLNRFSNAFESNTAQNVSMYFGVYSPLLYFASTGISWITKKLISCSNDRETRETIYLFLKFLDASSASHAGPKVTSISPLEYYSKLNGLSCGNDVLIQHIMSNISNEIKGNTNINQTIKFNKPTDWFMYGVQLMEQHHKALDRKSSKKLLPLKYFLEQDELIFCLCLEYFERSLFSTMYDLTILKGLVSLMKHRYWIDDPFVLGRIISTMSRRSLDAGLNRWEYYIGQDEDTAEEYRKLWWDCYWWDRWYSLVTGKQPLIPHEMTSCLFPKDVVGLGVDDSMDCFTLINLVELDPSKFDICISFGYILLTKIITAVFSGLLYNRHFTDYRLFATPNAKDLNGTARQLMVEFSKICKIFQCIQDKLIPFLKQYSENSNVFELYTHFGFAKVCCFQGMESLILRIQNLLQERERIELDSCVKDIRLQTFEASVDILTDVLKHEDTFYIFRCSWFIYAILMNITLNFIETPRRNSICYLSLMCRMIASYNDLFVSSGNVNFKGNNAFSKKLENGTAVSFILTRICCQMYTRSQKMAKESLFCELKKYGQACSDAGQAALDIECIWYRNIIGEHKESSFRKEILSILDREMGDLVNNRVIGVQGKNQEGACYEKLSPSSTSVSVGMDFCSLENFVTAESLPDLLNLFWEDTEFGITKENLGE
# Experiment: PBM E-score (8-mer binding enrichment) (E-score (-0.5 to 0.5)); higher = stronger / more preferred TF binding
# Settings: protein concentration: 100 nM; construct: GST-full length
# In short: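 GST-tagged yeast TFs (full-length or DNA-binding domain) were made by PURExpress in vitro transcription/translation and applied at about 100-200 nM to universal all-10-mer Agilent arrays. The arrays were made double-stranded by primer extension, on fresh or once-stripped slides. Bound protein was detected with fluorescent anti-GST, and scans were normalised with masliner. Each ungapped eight-base word, pooled with its reverse complement, received an E-score (modified Wilcoxon-Mann-Whitney statistic) from the Universal PBM Analysis Suite.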
row,Sequence,PBM E-score
1,AATTCAGT,-0.198
2,AATACGCT,-0.107
3,AAATGTGC,0.119
4,TGCGACCA,0.114
5,GGCTCCGA,0.0964
6,ACGGGTGA,-0.125
7,CGTCTTCA,-0.00365
8,GCCCACGC,-0.184
9,CATAATTC,0.0148
10,AAATGTAC,-0.00258
11,ACGAGTCA,-0.0551
12,TAAACTAA,0.254
13,CGAAGAAA,0.268
14,AGTGATCC,0.0892
15,GATCCACA,-0.0426
16,AAATTCCG,0.384
17,TGCCGGAA,0.421
18,GCTGTTTA,0.141
19,GACGACTA,-0.263
20,ACACTATC,-0.00981
21,TCACACCA,0.0175
22,CCTCTCCA,-0.273
23,CAGAATGC,0.0811
24,AGCCGGTC,0.144
25,CGTAGTGC,-0.0978

row,Sequence,PBM E-score
1,CGAGAACA,0.0391
2,GATATGCC,-0.0819
3,CCGCACCA,-0.0433
4,CCGTGGTC,0.00535
5,GGAAGCCA,-0.227
6,CCGAGCAA,0.195
7,CAGATAGA,-0.0671
8,CCGGGAGA,0.253
9,CCCCAGTA,-0.202
10,GTCTTAAC,-0.122
11,CAATTTAC,-0.0155
12,CCGAAACG,0.265
13,CCAAGAGC,-0.141
14,ATAGGCTC,-0.0944
15,ACGCCCCA,-0.128
16,CTTCTTGC,0.0529
17,GGGAAGCA,-0.128
18,CGCCAGCC,-0.0576
19,ACACTGGC,-0.0493
20,CGGCGGAC,0.266
21,AATGTACG,-0.181
22,CCTTCTAC,-0.177
23,AAGACAAT,-0.0653
24,AGTATAGA,0.0886
25,ACAGTTCC,0.175

row,Sequence,PBM E-score
1,CGCGGCCG,0.251
2,GTGCTTCA,0.114
3,GCAACTGC,0.106
4,CCAGAGAA,0.00736
5,ACTTGGGG,-0.277
6,AATGCCCA,-0.178
7,ATCTCGGC,0.37
8,GCCCATTA,-0.134
9,CAAAAAAC,0.168
10,GACAAACC,0.0316
11,ACAATAAG,0.0199
12,CGTTCCAG,-0.0853
13,TACAGAGA,-0.0445
14,CGTCAACA,-0.0309
15,AGGTGATA,-0.122
16,AGCTTAGA,-0.0558
17,CAAGAGTG,-0.158
18,TACGAAGA,0.05
19,AGCTTACT,-0.0973
20,AAGGCAGC,-0.142
21,ACATATTG,-0.0568
22,CACCCGGG,0.189
23,CCAGAAAG,0.122
24,CGGGAGCC,-0.11
25,CCTGTCCG,0.0366

row,Sequence,PBM E-score
1,CATATGCA,-0.0944
2,CCTGCTTC,-0.164
3,GGAAGGCC,-0.124
4,GTGCAAAC,0.0615
5,ACCCAAAG,-0.173
6,GTGTAGCA,-0.216
7,ATTCGGAG,0.205
8,CCTTGTAG,-0.145
9,GGGCCCGA,0.105
10,CATAATGA,-0.0194
11,GAAGTCAC,-0.123
12,ATTGTGCA,0.0169
13,CTCTCAAG,-0.058
14,ATCGACTG,-0.0891
15,CTCCCCCC,-0.421
16,TATTTACA,-0.00419
17,AGCTCTTC,0.0727
18,CAGCAACA,0.223
19,ATCAATCG,-0.00221
20,AGGCACCC,-0.305
21,CCGGGCAC,0.177
22,CGATGGTC,-0.12
23,AACACTCC,0.073
24,AAAGCTCC,-0.0539
25,CTCCGACC,0.0141

# A few values from the list:
# Value for CCTGCTTC under PBM E-score: -0.164
# Value for ATCAATCG under PBM E-score: -0.00221
# Value for GGAAGGCC under PBM E-score: -0.124
# Value for CGATGGTC under PBM E-score: -0.12
# Value for CCGGGCAC under PBM E-score: 0.177
# Value for CTCCCCCC under PBM E-score: -0.421
# Value for CTCTCAAG under PBM E-score: -0.058

# The list goes on:

row,Sequence,PBM E-score
1,AACGGGTG,-0.0136
2,ACCCGCTG,-0.0362
3,CCCCGGCG,0.0993
4,CAACTCCG,0.197
5,AGCTAAGC,-0.197
6,ATCCGCAA,0.0943
7,AACGTAGA,0.0265
8,CTCTTGCC,-0.0522
9,TCCGACAA,0.225
10,CCTGCCAC,-0.186
11,CTTTTCGC,0.214
12,TCAAAACA,0.191
13,ATGCTCTA,0.0424
14,AATTTGTC,0.11
15,TATAAGAA,0.046
16,CGGGTGAG,0.0538
17,GAATGAAA,0.0589
18,CTTATAAG,0.139
19,ACTAGATG,0.0118
20,CGGTGTCA,-0.0203
21,ATGGTCTG,-0.127
22,CATTCGAA,0.0417
23,ATTCGTTG,0.173
24,GATGGGAC,-0.26
25,GATGTAAC,0.0556

row,Sequence,PBM E-score
1,AAACGGGC,-0.00079
2,TCACTCAA,-0.153
3,GCTTACCC,-0.168
4,ATATTTCG,0.318
5,AAGTATGC,-0.115
6,GCTTAATA,0.00442
7,ATGCCGTC,0.0209
8,TGCGTAAA,0.0883
9,ATGTCCAA,0.0803
10,TATGCTCA,0.0666
11,CCTTGCAA,-0.183
12,GCTGTGAA,-0.0809
13,ACGGGAGA,-0.0674
14,ATTCAAAC,0.206
15,ACAGGTTA,-0.219
16,CCCAACCA,-0.118
17,AGTAGTCG,-0.0453
18,AGGAGTAC,-0.103
19,CACCATTC,-0.0855
20,ACCAATGA,-0.153
21,AATTTTAT,0.379
22,AGTCCGAA,0.343
23,ATAGTTGG,-0.182
24,CCCAAGGG,-0.433
25,GTGACGAA,0.026

row,Sequence,PBM E-score
1,ACCGGGAC,0.106
2,AATAAGAG,0.237
3,CGGGCATC,-0.0827
4,GATAATAA,0.0425
5,CGGAAGTA,0.303
6,CCCCACCG,-0.053
7,GATATTGC,-0.0873
8,GCCGAAGC,0.246
9,AGGTGCCG,0.22
10,CCGTAGAG,0.00453
11,CAGTAAGC,-0.0883
12,CGCTAAAC,0.083
13,ATGCCCAG,-0.0127
14,GTTCACCA,0.044
15,AATTCATC,-0.141
16,AGCCCCAG,-0.226
17,AATGAGCA,-0.00372
18,CGTTCTTC,0.0785
19,GCGAAGAC,-0.145
20,GAAAACCC,-0.0764
21,ATACGTCA,-0.0448
22,AGCGGTCG,-0.28
